Results are given in words; binding and its absence hold for the method and conditions named. Some entries that bind do so weakly or less than the wild type.
Target: purified murine syndecan-2 ectodomain (murine) (UniProt P43407)
Experiment: SPR

The chains behind the UniProt entries cited, without tags or fusion partners. Residues count along the entry.
UniProt P43407, residues 19-145: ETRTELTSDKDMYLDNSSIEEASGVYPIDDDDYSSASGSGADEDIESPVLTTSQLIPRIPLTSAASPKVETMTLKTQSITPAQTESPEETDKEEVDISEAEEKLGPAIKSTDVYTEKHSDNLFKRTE
UniProt P04202, residues 279-390: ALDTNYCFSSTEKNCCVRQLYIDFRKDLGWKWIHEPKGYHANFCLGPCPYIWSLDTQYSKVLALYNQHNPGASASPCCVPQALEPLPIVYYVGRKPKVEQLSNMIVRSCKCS
UniProt P40224, residues 22-93: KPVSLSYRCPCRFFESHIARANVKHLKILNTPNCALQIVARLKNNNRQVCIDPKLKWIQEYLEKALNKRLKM

| binding | Substance |
| --- | --- |
| binds | transforming growth factor beta 1 (TGF-β1) (from UniProt P04202 279-390) (ligand) |
| binds | stromal derived factor-1 (CXCL12) (from UniProt P40224 22-93) (ligand) |

— article doi:10.1101/2025.11.07.687077
